Assay results published in doi:10.1101/2022.07.16.500195.
Results are given in words; binding and its absence hold for the method and conditions named. For some assays here: In cells and extracts the contact can be indirect. Some entries that bind do so weakly or less than the wild type.

Assays:
[1] = target: PulM^C17L-L18C (Klebsiella oxytoca) (UniProt P15752); test: cross-linking
[2] = target: full-length PulL fused to T18 or T25 (T18-PulL, T25-PulL) (Klebsiella oxytoca) (UniProt P15751); test: two-hybrid
[3] = target: full-length PulM fused to T18 or T25 (T18-PulM, T25-PulM) (Klebsiella oxytoca) (UniProt P15752); test: two-hybrid
[4] = target: PulL^C264L with Cys at position 250 (PulL^I250C) (Klebsiella oxytoca) (UniProt P15751); test: cross-linking
[5] = target: PulM^WT (native PulM, Cys at position 17) (Klebsiella oxytoca) (UniProt P15752); test: cross-linking
[6] = target: PulL^C264L with Cys at position 251 (PulL^V251C) (Klebsiella oxytoca) (UniProt P15751); test: cross-linking

Row | Substance | binding [1] | binding [3] | binding [5] | also measured
1 | PulM^C17L-L18C (from UniProt P15752 1-161) | binds | – | – | –
2 | full-length PulL fused to T18 or T25 (T18-PulL, T25-PulL) (from UniProt P15751 1-398) | – | binds | – | binding [2]: no binding
3 | PulL^C264L with Cys at position 250 (PulL^I250C) (from UniProt P15751 1-398) | binds | – | binds | binding [4]: binds
4 | full-length PulM fused to T18 or T25 (T18-PulM, T25-PulM) (from UniProt P15752 1-161) | – | binds | – | –
5 | PulL^C264L with Cys at position 251 (PulL^V251C) (from UniProt P15751 1-398) | binds | – | binds | binding [6]: binds
6 | PulM^WT (native PulM, Cys at position 17) (from UniProt P15752 1-161) | – | – | binds | –
